Assay results from PubChem BioAssay AID504834 (National Center for Advancing Translational Sciences (NCATS), 2011).
Where “and” joins values, the source holds several entries; their conditions need not be identical. Equal values may be shown once. Screen size: about 320,000 compounds; about 22,000 (6.9%) were called active. Inconclusive means that the source gave no clear call. Such entries were picked first, then a sample of the others. Calls follow the shape of the dose curve; as a rule, active = well fitted inhibition curve with a large enough effect; inconclusive = small, poorly fitted or top-dose-only effect, or another doubt; inactive = no such curve, though single readings can be large or run the other way. Where the call is inconclusive, the potency comes from a doubtful curve fit. More than one record can exist for a structure, and the calls need not agree.
Potency is read from the fitted curve at half-maximal effect.

Experiment: Primary qHTS for delayed death inhibitors of the malarial parasite plastid, 96 hour incubation
Details: P. falciparum luciferase reporter growth; series mostly up to 28.7 µM
In short: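 P. falciparum expressing integrated firefly luciferase grown in erythrocytes (2% hematocrit, 0.05% parasitemia final) with compounds for 96 hours at 37 C, 5% CO2. Growth inhibition read as loss of luminescence after adding luciferase detection reagent.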
With C1=CC2c3ccccc3NC(c3ccncc3)C2C1 (stereo not given) the Potency was active: 13.1 µM. With O=C(Nc1ccc(N2CCOCC2)cc1Cl)C1CCN(C(=O)OCc2ccccc2)CC1 the Potency was inconclusive: 18.5 µM [inhibitor, single point]. In the case of COc1cc(/C=C2/C(=O)N(c3ccc(C)c(C)c3)N=C2C)cc([N+](=O)[O-])c1O, the Potency is reported as inconclusive: 18.5 µM [inhibitor, single point]. For OCC1(CO)COC(/C=C/c2ccccc2)=N1, the Potency was inconclusive: 18.5 µM [inhibitor, single point]. In the case of Cc1nc2ncccn2c1-c1csc(Nc2ccc(N(C)C)cc2)n1, the Potency is reported as inconclusive: 0.0828 µM [inhibitor, full curve, poor fit]. In the case of Cc1c(NC(=O)CSc2ccc(Cl)cc2)cccc1-c1nc2ncccc2o1, the Potency is reported as inconclusive: 18.5 µM [inhibitor, partial curve, poor fit]. In the case of COCC(=O)Nc1ccc(S(=O)(=O)Nc2cc(C)nc(C)n2)cc1, the Potency is reported as “inactive”. In the case of COc1cc(OC)cc(-c2c(-c3ccc(F)cc3)c3cc(-c4cccc5[nH]ccc45)ccc3n2C)c1, the Potency is reported as inconclusive: 1.04 µM [inhibitor, single point]. With O=C(NN=C1CCCCCC1)C(=O)Nc1cccc(Br)c1 the Potency was inconclusive: 18.5 µM [inhibitor, single point]. For CC(C)(C)NC(=O)C(c1cccs1)N(Cc1cccs1)C(=O)c1csnn1 (stereo not given), the Potency was inconclusive: 8.28 µM [inhibitor, partial curve, poor fit]. In the case of O=C(NNC(=O)c1ccc(Cn2cccn2)o1)NC12CC3CC(CC(C3)C1)C2, the Potency is reported as “inactive”. With CCOc1ccccc1-n1c(=S)sc2c(=O)n(-c3ccccc3)c(=S)[nH]c21 the Potency was inconclusive: 4.15 µM [inhibitor, single point]. In the case of Cc1ccccc1C(=O)Nc1ccc(N2CCN(C(=O)c3ccco3)CC2)cc1, the Potency is reported as inconclusive: 10.4 µM [inhibitor, single point]. With COc1cc(OC)cc(-c2oc3cccnc3c2C#CCCO)c1 the Potency was inconclusive: 18.5 µM [inhibitor, single point]. In the case of N/C(=N\OC(=O)/C=C/c1ccccc1Cl)c1ccncc1, the Potency is reported as “inactive”. In the case of Cc1cccc(C)c1NC(=O)COC(=O)c1nonc1N, the Potency is reported as inconclusive: 13.1 µM [inhibitor, partial curve]. For O=C(COC(=O)/C=C/c1cccc(C(F)(F)F)c1)NCc1ccco1, the Potency was “inactive”. For O=C(N/N=C\c1ccc([N+](=O)[O-])o1)c1cncc(Br)c1, the Potency was inconclusive: 1.65 µM [inhibitor, full curve, poor fit]. With COc1ccc2cc(CCNC(=O)c3ccc(Br)o3)c(=O)[nH]c2c1 the Potency was inconclusive: 5.22 µM [inhibitor, partial curve, poor fit]. With CC(=O)Nc1sc2c(c1C#N)CCCC2 the Potency was inconclusive: 18.5 µM [inhibitor, single point]. For Cc1ccccc1-n1c(=O)c(C#N)cc2c(=O)n3ccccc3nc21, the Potency was inconclusive: 23.3 µM [inhibitor, single point]. In the case of Cn1c(N)c(S(=O)(=O)N2CCN(c3ccccc3Cl)CC2)c(=O)n(C)c1=O, the Potency is reported as inconclusive: 0.37 µM [inhibitor, partial curve, poor fit]. In the case of Cc1cc(N2CCN(C)CC2)nc2ccc(NC(=S)N3CCN(c4ccc(F)cc4)CC3)cc12, the Potency is reported as active: 3.7 µM. With CCS(=O)(=O)N1CCN(Cc2ccncc2)CC1 the Potency was “inactive”. With COc1ccc(-c2cn[nH]c2-c2ccc(OCc3ccc([N+](=O)[O-])cc3)cc2O)cc1 the Potency was inconclusive: 2.94 µM [inhibitor, single point]. For CN(C)S(=O)(=O)c1ccc(N2CCCC2)c(C(=O)N2CCC(C(N)=O)CC2)c1, the Potency was inconclusive: 1.31 µM [inhibitor, partial curve]. With c1cncc(Nc2nc(-c3cccs3)cs2)c1 the Potency was active: 2.94 µM. For COC(=O)c1c(Sc2ccccc2)c2ccccc2n1C, the Potency was inconclusive: 20.8 µM [inhibitor, single point]. For CCC(Sc1nc2cc(OC)c(OC)cc2c(=O)n1CCc1ccc(S(N)(=O)=O)cc1)C(=O)NCCOC (stereo not given), the Potency was inconclusive: 10.4 µM [inhibitor, single point]. For CCOC(=O)c1c(-c2ccccc2)oc2ccc(OCC(N)=O)cc12, the Potency was inconclusive: 18.5 µM [inhibitor, single point]. In the case of COc1ccc(O)c(C2NC(CC(C)C)(C(=O)O)C3C(=O)N(Cc4ccccc4)C(=O)C23)c1 (stereo not given), the Potency is reported as “inactive”. With C=CCN=C1N[C@@H](c2ccccc2)C(C(=O)OC)=C(C)N1CCOC the Potency was “inactive and active: 10.4 µM”. In the case of CCOC(=O)C1CCCN(C(=O)c2sc3nc(-c4ccc(F)cc4)cn3c2C)C1 (stereo not given), the Potency is reported as inconclusive: 9.28 µM [inhibitor, partial curve]. With CCN1/C(=C\C(=S)Nc2ccccc2)Sc2ccccc21 the Potency was “inactive”. For CCOC(=O)N1CCC(NC(=O)c2cccn3c(=O)c4cc(Br)ccc4nc23)CC1, the Potency was “inactive”. With c1ccc(C2=Nn3c(nnc3-c3n[nH]c4c3CCC4)SC2)cc1 the Potency was inconclusive: 10.4 µM [inhibitor, single point]. With Cc1c(C(=O)N/N=C/c2cccnc2)sc(N)c1C#N the Potency was inconclusive: 9.28 µM [inhibitor, partial curve]. With CC(C)(C)NC(NC(=O)Cc1ccccc1)C(Cl)(Cl)Cl (stereo not given) the Potency was inconclusive: 0.208 µM [inhibitor, partial curve, poor fit]. With O=C(NCCCCNC(=O)c1ccc(Br)cc1)c1ccc(Br)cc1 the Potency was “inactive”. For Cc1nc2c(c(=O)n1CCC(C)C)c1nc3ccccc3nc1n2CC1CCCO1 (stereo not given), the Potency was “inactive”. In the case of COC(=O)c1nn(-c2ccc(Oc3ccccc3)cc2)c(=O)cc1O, the Potency is reported as “inactive”. With Cc1ccccc1-n1c(=O)cc(N2CCc3ccccc3C2)[nH]c1=O the Potency was “inactive”. In the case of Cc1ccc(S(=O)(=O)c2nc(-c3cccs3)oc2NCCCN(C)C)cc1, the Potency is reported as “inactive”. In the case of Cc1ccc(OCC(=O)c2c(N)n(C)c(=O)n(C)c2=O)c([N+](=O)[O-])n1, the Potency is reported as inconclusive: 18.5 µM [inhibitor, single point]. For Cn1c(=O)c2c(-c3ccccc3)n(Cc3cccnc3)cc2n(C)c1=O, the Potency was inconclusive: 3.7 µM [inhibitor, partial curve, poor fit]. In the case of Cc1c(CCN)ccc2c1[nH]c1ccccc12, the Potency is reported as inconclusive: 9.28 µM [inhibitor, partial curve, poor fit]. With CCC1=NN(C(=O)c2cccc(Br)c2)C(O)(c2ccc(Br)cc2)C1 (stereo not given) the Potency was inconclusive: 11.7 µM [inhibitor, single point]. In the case of COc1ccc(C(=O)Nc2ccc(C(=O)N3CCC(C)CC3)cc2)cc1OC, the Potency is reported as active: 2.62 µM. In the case of CC1(C)C2CCC1(C(=O)O)c1nc3ccccc3nc12 (stereo not given), the Potency is reported as inconclusive: 3.29 µM [inhibitor, full curve, poor fit]. For COc1cc(C(=O)OCC(=O)N2CCOCC2)c([N+](=O)[O-])cc1OC, the Potency was “inactive”. In the case of CC(C)n1nnnc1SCC(=O)N1CCN(C(=O)c2ccco2)CC1, the Potency is reported as inconclusive: 13.1 µM [inhibitor, single point]. For COCCCNC(=O)C1CCCCN1S(=O)(=O)c1ccc(F)cc1 (stereo not given), the Potency was inconclusive: 14.7 µM [inhibitor, single point]. In the case of COc1ccc(-c2cc(C#N)nc(Oc3ccc(Cl)cc3)n2)cc1, the Potency is reported as inconclusive: 18.5 µM [inhibitor, single point]. With CCCN(CCC)S(=O)(=O)c1ccc(C(=O)NCc2n[nH]c(=S)n2-c2ccc(Cl)c(Cl)c2)cc1 the Potency was “inactive”. For Cc1cc(C)c(C(=O)N2CCCC(CNS(=O)(=O)N(C)C)C2)o1 (stereo not given), the Potency was inconclusive: 18.5 µM [inhibitor, single point]. In the case of CCCN1C(=O)SC(CC(=O)Nc2ccccc2)C1=O (stereo not given), the Potency is reported as inconclusive: 18.5 µM [inhibitor, single point]. With CCOc1ccc(S(=O)(=O)N2CCOCC2)cc1NC(=O)CSCC(=O)Nc1cccc(C)c1 the Potency was inconclusive: 0.415 µM [inhibitor, full curve, poor fit]. With COc1ccc(CN2CCNC(=O)C2CC(=O)NCCSc2nccn2C)c(OC)c1 (stereo not given) the Potency was “inactive”. In the case of CCOc1ccccc1Nc1nnc(C)c(=O)[nH]1, the Potency is reported as “inactive”. For Cc1ccc(CNc2nc3ccccc3n3nnnc23)cc1, the Potency was “inactive”. For COC(=O)C1(O)CC(C(C)C)=NN1C(=O)c1ccccc1 (stereo not given), the Potency was “inactive”. In the case of Cc1cccc(N(C(=O)CNC(=O)c2ccco2)C(C(=O)NC2CCCCC2)c2cccnc2)c1 (stereo not given), the Potency is reported as inconclusive: 13.1 µM [inhibitor, partial curve]. With CC(=O)Nc1ccc(-c2nnn(CC(=O)c3ccccc3)n2)cc1Cl the Potency was inconclusive: 8.28 µM [inhibitor, partial curve, poor fit]. In the case of O=C1NC[C@H](c2ccccc2)N(CCC23CC4CC(CC(C4)C2)C3)C1=O, the Potency is reported as inconclusive: 18.5 µM [inhibitor, single point]. With C/C(=N\NC(=S)NC1CCCCC1)c1ccccc1 the Potency was inconclusive: 2.33 µM [inhibitor, full curve, poor fit]. With O=C(N/N=C/c1c[nH]c2ccccc12)c1ccncc1 the Potency was active: 11.7 µM. For CCN1CCc2nc(NC(=O)CC(c3ccccc3)c3ccccc3)sc2C1, the Potency was active: 10.4 µM. For OC(COC(c1ccc(F)cc1)c1ccc(F)cc1)CN1CCCC(C(F)(F)F)C1 (stereo not given), the Potency was inconclusive: 8.28 µM [inhibitor, partial curve, poor fit]. With Cc1ccc(/C=N/NC(=O)c2cc(-c3ccccc3)nc3ccccc23)o1 the Potency was “inactive”. In the case of CCC1CCCCN1C(=O)N[C@@H](CCSC)C(=O)OC (stereo not given in full), the Potency is reported as inconclusive: 1.04 µM [inhibitor, partial curve, poor fit].
